The list shows a part of the results. The main result of the screen is listed elsewhere. These columns were measured beside it and carry no call. The list favours compounds with an active or inconclusive main result. Words in brackets tell the shape of the fitted curve; partial curves, single points and poor fits give uncertain potencies.
Test: qHTS Assay for Modulators of Lamin A Splicing
Conditions: HeLa LMNA splicing GFP/RFP minigene ratio, 48 h
How it was run: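 Read-out is the ratio of GFP to DsRed2 object intensity, acquired by 488 nm laser-scanning cytometry on HeLa lamin A-EGFP minigene reporter cells. Compound incubation 48 hrs at 37 °C in Opti-MEM with 2% FBS; DMSO 0.5% final.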

[1] = measured here: RFP viability control channel
[2] = measured here: GFP splicing reporter channel

Structure (SMILES): Cc1cc(=O)[nH]c2ccc(Cl)cc12
- AC50 [1]: 11.2 µM [falling, partial curve, poor fit]

Structure (SMILES): Cc1ccc(S(=O)(=O)Nc2ccc(Cl)cc2)cc1NC(=O)Cn1cnc2c1c(=O)n(C)c(=O)n2C
- AC50 [1]: 7.94 µM [rising, partial curve, poor fit]

Structure (SMILES): COc1ccccc1CN1CCC(CNC(=O)c2cnn(-c3ccc(Cl)cc3)c2C2CCN(C(=O)OC(C)(C)C)CC2)CC1
- AC50 [2]: 15.8 µM [falling, partial curve]
- AC50 [1]: 15.8 µM [falling, partial curve]

Structure (SMILES): O=C(NN1C(=O)C2C(C1=O)C1C=CC2C12CC2)c1ccncc1 (stereo not given)
- AC50 [2]: 6.31 µM [falling, single point]
- AC50 [1]: 6.31 µM [falling, single point]

Structure (SMILES): COC(=O)c1oc2ccccc2c1NC(=O)CN1CCCC1
- AC50 [2]: 0.0708 µM [rising, full curve, poor fit]
- AC50 [1]: 0.0708 µM [rising, full curve, poor fit]

Structure (SMILES): Cc1ccc(Cn2ccc(NC(=O)c3nn(C)cc3[N+](=O)[O-])n2)cc1
- AC50 [1]: 5.01 µM [rising, partial curve, poor fit]

Structure (SMILES): Cc1ccc(N=Nc2c(C)[nH][nH]c2=O)c(C)c1
- AC50 [2]: 11.2 µM [falling, single point]
- AC50 [1]: 12.6 µM [falling, partial curve]

Structure (SMILES): O=C(N/N=C/c1ccc([N+](=O)[O-])s1)c1cccc(Br)c1
- AC50 [2]: 14.1 µM [falling, single point]
- AC50 [1]: 35.5 µM [falling, single point]

Structure (SMILES): COc1ccc(CCN2C(=O)c3[nH]nc(-c4ccccc4O)c3C2c2ccccc2)cc1OC (stereo not given)
- AC50 [2]: 12.6 µM [rising, single point]
- AC50 [1]: 15.8 µM [rising, single point]

Structure (SMILES): CN1C(=O)OC(C)(C)C1=O
- AC50 [2]: 14.1 µM [falling, single point]
- AC50 [1]: 14.1 µM [falling, single point]

Structure (SMILES): CCN(Cc1ccccc1)C(=O)c1sc2nc3n(c(=O)c2c1C)CCCC3
- AC50 [2]: 0.224 µM [falling, full curve]
- AC50 [1]: 0.708 µM [falling, partial curve, poor fit]

Structure (SMILES): COc1ccc(C2(CNC(=O)c3ccc(OC)c([N+](=O)[O-])c3)CCCCC2)cc1OC
- AC50 [1]: 12.6 µM [rising, partial curve]

Structure (SMILES): Cc1ccc(Nc2nnc(SCC3CCCCO3)s2)cc1 (stereo not given)
- AC50 [1]: 10 µM [rising, partial curve, poor fit]

Structure (SMILES): CC1CCc2cc(F)ccc2N1C(=O)CSc1nnc2c(n1)[nH]c1ccccc12 (stereo not given)
- AC50 [2]: 10 µM [rising, single point]
- AC50 [1]: 31.6 µM [rising, single point]

Structure (SMILES): Cc1ccc2nc(NC(=O)C3CCN(S(=O)(=O)c4cccnc4)CC3)sc2c1
- AC50 [1]: 15.8 µM [rising, single point]

Structure (SMILES): CCOCCCN(Cc1ccco1)C(=O)c1cc2c(=O)[nH]c3ccc(C)cc3c2s1
- AC50 [2]: 20 µM [rising, single point]

Structure (SMILES): N#Cc1ccc(N2Cc3ccccc3C2=NC(=O)c2cccnc2Cl)cc1
- AC50 [2]: 0.00447 µM [falling, full curve, poor fit]

Structure (SMILES): CCOC(=O)c1sc2nc[nH]c(=O)c2c1C
- AC50 [1]: 35.5 µM [rising, single point]

Structure (SMILES): Cc1cccc(Oc2ccc(C(=O)NC3CCSC3=O)cn2)c1C (stereo not given)
- AC50 [2]: 35.5 µM [rising, single point]
- AC50 [1]: 35.5 µM [rising, single point]

Structure (SMILES): CC(C)C(C)(C#N)NC(=O)CSc1nc2scc(-c3ccccc3)c2c(=O)[nH]1 (stereo not given)
- AC50 [2]: 11.2 µM [rising, single point]

Structure (SMILES): Cc1ccc(Cl)cc1N1CCN(C(=O)CN2C(=O)CSc3c2c(C)nn3-c2ccccc2)CC1
- AC50 [2]: 4.47 µM [falling, partial curve]

Structure (SMILES): O=C(CSc1ccc2c(c1)OCCO2)Nc1ccc2c(c1)OCO2
- AC50 [1]: 35.5 µM [rising, single point]

Structure (SMILES): COc1cccc(NC(=O)c2cnc(SCC(=O)N3CCOCC3)n(C)c2=O)c1
- AC50 [2]: 15.8 µM [falling, single point]
- AC50 [1]: 35.5 µM [falling, single point]

Structure (SMILES): CNC(=S)N/N=C/c1cn(CCOc2cccc(OC)c2)c2ccccc12
- AC50 [2]: 12.6 µM [rising, single point]
- AC50 [1]: 14.1 µM [rising, single point]

Structure (SMILES): COc1ccc(NC(=S)Nc2nc(CC(=O)Nc3ccccc3OC)cs2)cc1
- AC50 [2]: 15.8 µM [rising, single point]
- AC50 [1]: 22.4 µM [rising, single point]

Structure (SMILES): COCCCNC(=O)c1ccc(Cn2c(SCc3cccc(C)c3)nc3cccnc32)cc1
- AC50 [2]: 0.00178 µM [falling, full curve]

Structure (SMILES): Cc1ccc(C)c(N2CCN(C(=O)c3cc(S(=O)(=O)N4CCCCCC4)cn3C)CC2)c1
- AC50 [1]: 14.1 µM [rising, single point]

Structure (SMILES): Cc1ccc(O)c(C(=O)c2cnc3c(c2)COc2ccccc2-3)c1
- AC50 [1]: 22.4 µM [rising, single point]

Structure (SMILES): O=C(NCCc1nc(-c2ccccc2)cs1)c1ccc(Br)cc1
- AC50 [1]: 22.4 µM [rising, single point]

Structure (SMILES): Cc1ccc2c(c1)cc(CN(Cc1ccco1)S(=O)(=O)c1ccccc1)c1nnnn12
- AC50 [1]: 5.62 µM [rising, single point]

Structure (SMILES): O=C(NCc1ccccc1)/C(=C/c1ccc(OC(F)F)cc1)c1ccccc1
- AC50 [1]: 22.4 µM [rising, single point]

Structure (SMILES): CC(=O)CCCCn1c(=O)c2c(ncn2C)n(C)c1=O
- AC50 [1]: 5.62 µM [falling, single point]

Structure (SMILES): Cc1cc(C)n(CC(O)COc2c(C)cccc2C)n1 (stereo not given)
- AC50 [2]: 0.126 µM [falling, single point]
- AC50 [1]: 0.316 µM [falling, full curve, poor fit]

Structure (SMILES): C/C(=N\OCC(=O)Nc1ccc(Br)cc1)c1cccs1
- AC50 [2]: 2.82 µM [rising, partial curve]

Structure (SMILES): O=C(NCc1ccc2c(c1)OCO2)c1ccc(CSCc2ccc(Cl)cc2)o1
- AC50 [1]: 15.8 µM [rising, partial curve]

Structure (SMILES): O=C(Nc1ccc(F)cc1)N1CCN(C(=O)c2nsc3ccccc23)CC1
- AC50 [2]: 0.794 µM [rising, full curve]
- AC50 [1]: 0.794 µM [rising, full curve, poor fit]

Structure (SMILES): O=C1C(=O)c2ccc(-c3ccccc3)cc2-c2ccccc21
- AC50 [2]: 5.62 µM [falling, single point]
- AC50 [1]: 5.62 µM [falling, single point]

Structure (SMILES): CCOC(=O)CSc1nnc2n(C3CCCCC3)c(=O)c3c4c(sc3n12)CCCC4
- AC50 [2]: 5.62 µM [rising, single point]
- AC50 [1]: 4.47 µM [rising, single point]

Structure (SMILES): COc1ccc(NC(=O)COC(=O)c2ccc(S(=O)(=O)N(C)c3ccccc3OC)cc2)c(OC)c1
- AC50 [1]: 5.62 µM [rising, partial curve, poor fit]

Structure (SMILES): O=C(NC1CCCC1)C(c1ccncc1)N(Cc1ccco1)C(=O)c1ccc(-c2ccccc2)[nH]1 (stereo not given)
- AC50 [1]: 11.2 µM [falling, partial curve]

Structure (SMILES): COc1ccccc1CNC(=O)CN1C(=O)C(C)N(c2ccc(C)cc2)C1=O (stereo not given)
- AC50 [1]: 3.55 µM [rising, partial curve]

Structure (SMILES): COc1ccc(-n2ncc(C(=O)N3CCOCC3)c2C2CCN(C(=O)OC(C)(C)C)CC2)cc1
- AC50 [1]: 0.251 µM [falling, full curve, poor fit]

Structure (SMILES): Cc1ccc(Oc2c(C(N)=O)cc([N+](=O)[O-])cc2[N+](=O)[O-])cc1
- AC50 [2]: 35.5 µM [falling, single point]
- AC50 [1]: 22.4 µM [falling, single point]

Structure (SMILES): CCN(C(=O)COC(=O)c1ccccc1Nc1cccc(C)c1C)C1CCS(=O)(=O)C1 (stereo not given)
- AC50 [1]: 25.1 µM [falling, single point]

Structure (SMILES): Cc1ccc2cccc(Oc3ncnc4scc(-c5ccc(Cl)cc5)c34)c2n1
- AC50 [1]: 22.4 µM [rising, single point]

Structure (SMILES): O=C(c1ccccc1[N+](=O)[O-])N1CCN(Cc2ccc3c(c2)OCO3)CC1
- AC50 [1]: 0.0891 µM [rising, full curve]

Structure (SMILES): O=C(/C=C/c1ccccc1Cl)Nn1cnc2ccccc2c1=O
- AC50 [1]: 0.00891 µM [rising, full curve, poor fit]

Structure (SMILES): O=C(CSc1ncccc1-c1nc2ccccc2[nH]1)NCc1ccco1
- AC50 [2]: 5.62 µM [falling, single point]
- AC50 [1]: 4.47 µM [falling, partial curve, poor fit]

Structure (SMILES): CC1CCc2c(sc3nnn(CC(=O)Nc4ccc(Cl)cc4)c(=O)c23)C1 (stereo not given)
- AC50 [2]: 0.708 µM [rising, full curve]

Structure (SMILES): CCCc1ccc(/C=C2\C(=O)c3ccccc3C(O)=C2C(=O)OCC)cc1
- AC50 [1]: 14.1 µM [rising, partial curve, poor fit]

Structure (SMILES): COC(=O)c1sccc1S(=O)(=O)N(CC(=O)NCc1ccc(F)cc1)c1ccc(Cl)cc1
- AC50 [2]: 0.794 µM [rising, full curve, poor fit]
- AC50 [1]: 15.8 µM [rising, partial curve]

Structure (SMILES): CCOc1ccc(OCC)c(NC(=O)Nc2ccc3c(c2)N(C)C(=O)CS3)c1
- AC50 [1]: 15.8 µM [rising, partial curve, poor fit]

Structure (SMILES): CCCCN(C(=O)CNC(=O)c1cccs1)C(C(=O)NC1CCCC1)c1ccncc1 (stereo not given)
- AC50 [2]: 31.6 µM [rising, single point]
- AC50 [1]: 31.6 µM [rising, single point]

Structure (SMILES): O=C(CSc1ccsc1[N+](=O)[O-])N1CCN(c2ccccc2)CC1
- AC50 [1]: 12.6 µM [rising, single point]
